Test results published in publication PMC9674300.
No constants are given. Whether binding was seen depends on the method and setting. Binding seen in cells or lysates may run through a third protein. Some results given as binding are weak or reduced against the parent protein; the word gives no strength. Where a sequence is shown, tags or fusion partners need not be part of it.

T1: Sema3B-GFP (endogenous Sema3B fused at its N terminus to enhanced green fluorescent protein, Sema3B-GFP knock-in mouse) (mouse (endogenous in the Sema3B-GFP knock-in line)) (UniProt Q62177)
T1 sequence: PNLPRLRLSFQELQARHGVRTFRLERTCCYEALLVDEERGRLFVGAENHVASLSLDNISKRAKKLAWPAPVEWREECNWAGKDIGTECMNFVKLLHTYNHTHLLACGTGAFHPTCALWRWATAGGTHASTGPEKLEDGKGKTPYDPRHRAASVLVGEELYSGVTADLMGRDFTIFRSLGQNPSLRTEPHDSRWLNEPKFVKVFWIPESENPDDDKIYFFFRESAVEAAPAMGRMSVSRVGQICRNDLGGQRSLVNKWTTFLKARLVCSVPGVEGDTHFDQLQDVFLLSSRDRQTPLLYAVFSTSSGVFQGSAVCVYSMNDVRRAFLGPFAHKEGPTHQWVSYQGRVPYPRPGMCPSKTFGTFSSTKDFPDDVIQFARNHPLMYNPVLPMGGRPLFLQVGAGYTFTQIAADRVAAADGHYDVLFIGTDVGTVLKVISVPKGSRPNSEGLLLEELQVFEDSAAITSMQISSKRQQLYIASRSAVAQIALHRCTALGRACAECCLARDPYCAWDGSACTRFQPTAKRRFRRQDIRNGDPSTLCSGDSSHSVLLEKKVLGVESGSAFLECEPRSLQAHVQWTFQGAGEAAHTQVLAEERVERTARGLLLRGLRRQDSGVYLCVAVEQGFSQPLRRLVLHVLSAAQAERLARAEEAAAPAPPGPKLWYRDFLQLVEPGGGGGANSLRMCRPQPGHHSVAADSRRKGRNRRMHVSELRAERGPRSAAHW

B1: Nrp2, soluble forms in the embryonic cerebrospinal fluid (receptor, UniProt O35375 21-864)
chain: RSQQDPPCGGRLNSKDAGYITSPGYPQDYPSHQNCEWIVYAPEPNQKIVLNFNPHFEIEKHDCKYDFIEIRDGDSESADLLGKHCGNIAPPTIISSGSVLYIKFTSDYARQGAGFSLRYEIFKTGSEDCSKNFTSPNGTIESPGFPEKYPHNLDCTFTILAKPRMEIILQFLTFDLEHDPLQVGEGDCKYDWLDIWDGIPHVGPLIGKYCGTKTPSKLRSSTGILSLTFHTDMAVAKDGFSARYYLIHQEPPENFQCNVPLGMESGRIANEQISASSTFSDGRWTPQQSRLHGDDNGWTPNLDSNKEYLQVDLRFLTMLTAIATQGAISRETQKGYYVKSYKLEVSTNGEDWMVYRHGKNHKIFQANNDATEVVLNKLHMPLLTRFIRIRPQTWHLGIALRLELFGCRVTDAPCSNMLGMLSGLIADTQISASSTREYLWSPSAARLVSSRSGWFPRNPQAQPGEEWLQVDLGTPKTVKGVIIQGARGGDSITAVEARAFVRKFKVSYSLNGKDWEYIQDPRTQQTKLFEGNMHYDTPDIRRFDPVPAQYVRVYPERWSPAGIGMRLEVLGCDWTDSKPTVETLGPTVKSEETTTPYPMDEDATECGENCSFEDDKDLQLPSGFNCNFDFPEETCGWVYDHAKWLRSTWISSANPNDRTFPDDKNFLKLQSDGRREGQYGRLISPPVHLPRSPVCMEFQYQAMGGHGVALQVVREASQESKLLWVIREDQGSEWKHGRIILPSYDMEYQIVFEGVIGKGRSGEISIDDIRISTDVPLENCMEPISAFAGEDFKVDIPETHGGEGYEDEIDDEYEGDWSNSSSSTSGAGDPSSGKEKSWLYTLDP
B2: Nrp1, soluble forms in the embryonic cerebrospinal fluid (receptor, UniProt P97333 22-856)
chain: FRSDKCGGTIKIENPGYLTSPGYPHSYHPSEKCEWLIQAPEPYQRIMINFNPHFDLEDRDCKYDYVEVIDGENEGGRLWGKFCGKIAPSPVVSSGPFLFIKFVSDYETHGAGFSIRYEIFKRGPECSQNYTAPTGVIKSPGFPEKYPNSLECTYIIFAPKMSEIILEFESFDLEQDSNPPGGMFCRYDRLEIWDGFPEVGPHIGRYCGQKTPGRIRSSSGVLSMVFYTDSAIAKEGFSANYSVLQSSISEDFKCMEALGMESGEIHSDQITASSQYGTNWSVERSRLNYPENGWTPGEDSYKEWIQVDLGLLRFVTAVGTQGAISKETKKKYYVKTYRVDISSNGEDWISLKEGNKAIIFQGNTNPTDVVLGVFSKPLITRFVRIKPVSWETGISMRFEVYGCKITDYPCSGMLGMVSGLISDSQITASNQADRNWMPENIRLVTSRTGWALPPSPHPYTNEWLQVDLGDEKIVRGVIIQGGKHRENKVFMRKFKIAYSNNGSDWKTIMDDSKRKAKSFEGNNNYDTPELRTFSPLSTRFIRIYPERATHSGLGLRMELLGCEVEAPTAGPTTPNGNPVDECDDDQANCHSGTGDDFQLTGGTTVLATEKPTIIDSTIQSEFPTYGFNCEFGWGSHKTFCHWEHDSHAQLRWSVLTSKTGPIQDHTGDGNFIYSQADENQKGKVARLVSPVVYSQSSAHCMTFWYHMSGSHVGTLRVKLRYQKPEEYDQLVWMVVGHQGDHWKEGRVLLHKSLKLYQVIFEGEIGKGNLGGIAVDDISINNHISQEDCAKPTDLDKKNTEIKIDETGSTPGYEGEGEGDKNISRKPGNVLKTLDP

Target: T1, Sema3B-GFP (endogenous Sema3B fused at its N terminus to enhanced green fluorescent protein, Sema3B-GFP knock-in mouse) (mouse (endogenous in the Sema3B-GFP knock-in line))
Experiment: co-IP; CSF of E13.5 Sema3B-GFP ki embryos (WT CSF as control of specificity); rabbit anti-GFP overnight at 4°C, magnetic protein A beads 15 min at RT; Western blot against Nrp1 or Nrp2

Row | Binder | binding
1 | B1 | binds
2 | B2 | binds weakly
